{"source": "PubChem BioAssay AID686937 – Drosophila RNAi Screening Center, 2013", "assay": "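Genes whose loss weakens secretory pathway function in fly cells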 (primary screen)", "cells": "Drosophila S2 cells expressing secreted horseradish peroxidase", "knock-down reagent": "long dsRNA against Drosophila genes", "duration": "about 5.5 days (5 days dsRNA, then 12 h reporter induction)", "conditions": "reporter expression induced after 5 days of dsRNA, read 12 h later; inducer not stated", "read-out": "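Chemiluminescent measurement of peroxidase in the medium 12 h after reporter induction, following 5 days of dsRNA, given as a z-score per plate; higher means more secretion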", "direction": "z-score: higher = more reporter secreted into medium", "note": "The deposit covers about 23,000 reagents; this is an unselected part of those that have a named target and a result. 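Reduced-secretion tags in replicate 1 do not always agree with the z-scores; no criterion for assigning the tags was given.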 Reagent sequences are not shown. Not stated in the record: the amount of reagent."}
{"predicted target":"Spindly","dsRNA":"DRSC00430","z-score, replicate 1":-0.91,"z-score, replicate 2":-0.63}
{"predicted target":"sip2","dsRNA":"DRSC03154","z-score, replicate 1":-0.68,"z-score, replicate 2":-0.01}
{"predicted target":"CG15719","dsRNA":"DRSC19685","z-score, replicate 1":0.2,"z-score, replicate 2":0.2}
{"predicted target":"Or71a","dsRNA":"DRSC11244","z-score, replicate 1":0.14,"z-score, replicate 2":0.34}
{"predicted target":"spn-E","dsRNA":"DRSC17064","z-score, replicate 1":0.38,"z-score, replicate 2":0.34}
{"predicted target":"CG5390","dsRNA":"DRSC02855","z-score, replicate 1":-0.28,"z-score, replicate 2":-0.37}
{"predicted target":"Tl","dsRNA":"DRSC16885","z-score, replicate 1":0.35,"z-score, replicate 2":0.47}
{"predicted target":"CG13299","dsRNA":"DRSC09973","z-score, replicate 1":0.37,"z-score, replicate 2":0.35}
{"predicted target":"Atg18a","dsRNA":"DRSC10943","z-score, replicate 1":0.42,"z-score, replicate 2":0.39}
{"predicted target":"TwdlP","dsRNA":"DRSC14734","z-score, replicate 1":0.53,"z-score, replicate 2":0.63}
{"predicted target":"mdu","dsRNA":"DRSC19860","z-score, replicate 1":-1.59,"z-score, replicate 2":-1.21}
{"predicted target":"CG31664","dsRNA":"DRSC22084","z-score, replicate 1":-0.11,"z-score, replicate 2":-0.55}
{"predicted target":"CG16782","dsRNA":"DRSC18118","z-score, replicate 1":-0.23,"z-score, replicate 2":-0.43}
{"predicted target":"CG17349","dsRNA":"DRSC02610","z-score, replicate 1":0.22,"z-score, replicate 2":0.3}
{"predicted target":"CG2701","dsRNA":"DRSC18590","z-score, replicate 1":0.38,"z-score, replicate 2":0.36}
{"predicted target":"Swip-1","dsRNA":"DRSC02083","z-score, replicate 1":0.1,"z-score, replicate 2":0.09}
{"predicted target":"Swip-1","dsRNA":"DRSC02084","z-score, replicate 1":0.13,"z-score, replicate 2":0.5}

A portion of the results above:
{"predicted target":"Spindly","dsRNA":"DRSC00430","z-score, replicate 1":-0.91,"z-score, replicate 2":-0.63}
{"predicted target":"sip2","dsRNA":"DRSC03154","z-score, replicate 1":-0.68,"z-score, replicate 2":-0.01}
